No constants are given. Whether binding was seen depends on the method and setting. Binding seen in cells or lysates may run through a third protein. Some results given as binding are weak or reduced against the parent protein; the word gives no strength. Tags and fused reporters may be left off the sequences shown.
T1: E. coli TatC, chromosomally encoded, with a Twin-Strep tag (E. coli) (UniProt P69423)
T1 sequence: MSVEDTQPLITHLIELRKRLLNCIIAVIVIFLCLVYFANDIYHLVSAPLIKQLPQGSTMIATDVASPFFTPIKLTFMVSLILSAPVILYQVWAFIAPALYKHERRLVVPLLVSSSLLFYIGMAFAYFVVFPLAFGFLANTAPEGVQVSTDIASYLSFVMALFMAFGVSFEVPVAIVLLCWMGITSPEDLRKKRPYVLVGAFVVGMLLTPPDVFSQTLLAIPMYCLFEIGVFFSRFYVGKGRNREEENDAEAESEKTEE

T2: E. coli TatC with a C-terminal strep tag, expressed from the tatABC plasmid (E. coli) (UniProt P69423)
T2 sequence: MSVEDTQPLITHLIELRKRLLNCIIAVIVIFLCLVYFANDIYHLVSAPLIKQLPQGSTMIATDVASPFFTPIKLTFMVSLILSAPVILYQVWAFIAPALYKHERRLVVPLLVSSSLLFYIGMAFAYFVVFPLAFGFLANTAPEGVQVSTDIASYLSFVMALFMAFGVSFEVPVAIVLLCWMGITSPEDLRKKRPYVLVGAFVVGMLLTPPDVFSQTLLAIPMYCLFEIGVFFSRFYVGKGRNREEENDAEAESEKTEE


How the values were obtained:
[1] = target: T1, E. coli TatC, chromosomally encoded, with a Twin-Strep tag (E. coli); experiment: pull-down
[2] = target: T2, E. coli TatC with a C-terminal strep tag, expressed from the tatABC plasmid (E. coli); experiment: pull-down

binding [1] | binding [2] | Binder
binds | – | E. coli TatA, natively expressed (protein, UniProt P69428 1-89) MGGISIWQLLIIAVIVVLLFGTKKLGSIGSDLGASIKGFKKAMSDDEPKQDKTSQDADFTAKTIADKQADTNQEQAKTEDAKRHDKEQV
– | binds | E. coli TatA with an internal His tag (protein, UniProt P69428 1-89) MGGISIWQLLIIAVIVVLLFGTKKLGSIGSDLGASIKGFKKAMSDDEPKQDKTSQDADFTAKTIADKQADTNQEQAKTEDAKRHDKEQV
binds | – | E. coli TatB, natively expressed (protein, UniProt P69425 1-171) MFDIGFSELLLVFIIGLVVLGPQRLPVAVKTVAGWIRALRSLATTVQNELTQELKLQEFQDSLKKVEKASLTNLTPELKASMDELRQAAESMKRSYVANDPEKASDEAHTIHNPVVKDNEAAHEGVTPAAAQTQASSPEQKPETTPEPVVKPAADAEPKTAAPSPSSSDKP
